Measured values as given in the supplement of paper PMC10849652.
The list shows a part of the results.

Sequences of proteins named here, by UniProt entry; tags and fusion partners are left off. A change or cut given only in a name is not applied to a line headed by its entry.
UniProt Q9UJT0: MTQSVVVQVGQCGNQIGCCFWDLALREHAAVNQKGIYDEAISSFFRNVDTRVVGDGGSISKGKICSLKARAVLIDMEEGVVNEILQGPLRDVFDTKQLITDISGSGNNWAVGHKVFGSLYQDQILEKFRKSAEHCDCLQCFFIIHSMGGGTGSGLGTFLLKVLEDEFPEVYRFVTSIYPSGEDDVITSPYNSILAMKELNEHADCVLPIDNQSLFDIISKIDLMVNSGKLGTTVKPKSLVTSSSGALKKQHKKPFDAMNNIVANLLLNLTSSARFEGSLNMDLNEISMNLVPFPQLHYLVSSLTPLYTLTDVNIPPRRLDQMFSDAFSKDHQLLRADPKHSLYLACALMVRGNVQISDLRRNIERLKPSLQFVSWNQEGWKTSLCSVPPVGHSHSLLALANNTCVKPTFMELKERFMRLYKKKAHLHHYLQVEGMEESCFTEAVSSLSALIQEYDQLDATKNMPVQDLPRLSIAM
UniProt Q9BTX7: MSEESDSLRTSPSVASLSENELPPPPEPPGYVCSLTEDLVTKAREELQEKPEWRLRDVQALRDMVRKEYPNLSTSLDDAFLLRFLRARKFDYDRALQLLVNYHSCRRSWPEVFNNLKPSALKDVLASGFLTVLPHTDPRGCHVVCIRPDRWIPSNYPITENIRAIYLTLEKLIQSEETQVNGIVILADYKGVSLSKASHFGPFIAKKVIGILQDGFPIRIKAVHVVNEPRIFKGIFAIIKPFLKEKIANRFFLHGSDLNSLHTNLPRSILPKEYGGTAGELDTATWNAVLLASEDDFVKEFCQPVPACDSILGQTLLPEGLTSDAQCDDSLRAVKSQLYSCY
UniProt Q96CW5, whole entry, looked up: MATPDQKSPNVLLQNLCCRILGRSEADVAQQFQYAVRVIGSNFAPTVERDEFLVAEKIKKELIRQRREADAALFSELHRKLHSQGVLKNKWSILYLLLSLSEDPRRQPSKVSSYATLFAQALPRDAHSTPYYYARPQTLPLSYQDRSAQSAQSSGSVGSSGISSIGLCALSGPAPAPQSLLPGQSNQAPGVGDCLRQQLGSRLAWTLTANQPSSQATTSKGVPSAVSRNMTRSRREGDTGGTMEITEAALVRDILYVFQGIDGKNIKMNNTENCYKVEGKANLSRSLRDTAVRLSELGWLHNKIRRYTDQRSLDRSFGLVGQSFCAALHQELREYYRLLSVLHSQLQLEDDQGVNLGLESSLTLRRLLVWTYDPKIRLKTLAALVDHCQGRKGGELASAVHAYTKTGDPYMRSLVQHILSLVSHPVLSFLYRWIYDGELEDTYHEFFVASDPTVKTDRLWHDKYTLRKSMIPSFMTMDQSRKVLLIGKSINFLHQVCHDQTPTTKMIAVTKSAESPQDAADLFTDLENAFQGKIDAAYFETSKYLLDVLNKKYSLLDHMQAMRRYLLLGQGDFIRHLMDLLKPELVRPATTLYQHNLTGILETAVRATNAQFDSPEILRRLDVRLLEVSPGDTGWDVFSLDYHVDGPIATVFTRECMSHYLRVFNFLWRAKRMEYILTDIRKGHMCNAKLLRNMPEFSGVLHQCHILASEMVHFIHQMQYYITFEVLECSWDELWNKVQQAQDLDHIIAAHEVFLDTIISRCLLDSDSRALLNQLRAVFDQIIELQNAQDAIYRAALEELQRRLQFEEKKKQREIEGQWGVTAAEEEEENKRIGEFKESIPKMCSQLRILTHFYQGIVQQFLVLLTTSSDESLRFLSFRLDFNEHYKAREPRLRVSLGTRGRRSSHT
UniProt Q712K3: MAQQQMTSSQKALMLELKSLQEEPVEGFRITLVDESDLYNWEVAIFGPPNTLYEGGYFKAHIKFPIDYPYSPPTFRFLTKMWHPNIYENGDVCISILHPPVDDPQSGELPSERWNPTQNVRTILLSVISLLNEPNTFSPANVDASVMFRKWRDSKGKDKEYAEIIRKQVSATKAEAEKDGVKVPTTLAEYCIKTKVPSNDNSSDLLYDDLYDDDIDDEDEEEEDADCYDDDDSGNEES
UniProt P63146, whole entry, looked up: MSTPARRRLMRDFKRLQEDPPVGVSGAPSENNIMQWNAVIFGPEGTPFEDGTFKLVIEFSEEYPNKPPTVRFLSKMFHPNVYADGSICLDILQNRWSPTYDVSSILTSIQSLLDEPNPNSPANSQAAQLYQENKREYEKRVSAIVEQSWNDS
UniProt O43156, whole entry, looked up: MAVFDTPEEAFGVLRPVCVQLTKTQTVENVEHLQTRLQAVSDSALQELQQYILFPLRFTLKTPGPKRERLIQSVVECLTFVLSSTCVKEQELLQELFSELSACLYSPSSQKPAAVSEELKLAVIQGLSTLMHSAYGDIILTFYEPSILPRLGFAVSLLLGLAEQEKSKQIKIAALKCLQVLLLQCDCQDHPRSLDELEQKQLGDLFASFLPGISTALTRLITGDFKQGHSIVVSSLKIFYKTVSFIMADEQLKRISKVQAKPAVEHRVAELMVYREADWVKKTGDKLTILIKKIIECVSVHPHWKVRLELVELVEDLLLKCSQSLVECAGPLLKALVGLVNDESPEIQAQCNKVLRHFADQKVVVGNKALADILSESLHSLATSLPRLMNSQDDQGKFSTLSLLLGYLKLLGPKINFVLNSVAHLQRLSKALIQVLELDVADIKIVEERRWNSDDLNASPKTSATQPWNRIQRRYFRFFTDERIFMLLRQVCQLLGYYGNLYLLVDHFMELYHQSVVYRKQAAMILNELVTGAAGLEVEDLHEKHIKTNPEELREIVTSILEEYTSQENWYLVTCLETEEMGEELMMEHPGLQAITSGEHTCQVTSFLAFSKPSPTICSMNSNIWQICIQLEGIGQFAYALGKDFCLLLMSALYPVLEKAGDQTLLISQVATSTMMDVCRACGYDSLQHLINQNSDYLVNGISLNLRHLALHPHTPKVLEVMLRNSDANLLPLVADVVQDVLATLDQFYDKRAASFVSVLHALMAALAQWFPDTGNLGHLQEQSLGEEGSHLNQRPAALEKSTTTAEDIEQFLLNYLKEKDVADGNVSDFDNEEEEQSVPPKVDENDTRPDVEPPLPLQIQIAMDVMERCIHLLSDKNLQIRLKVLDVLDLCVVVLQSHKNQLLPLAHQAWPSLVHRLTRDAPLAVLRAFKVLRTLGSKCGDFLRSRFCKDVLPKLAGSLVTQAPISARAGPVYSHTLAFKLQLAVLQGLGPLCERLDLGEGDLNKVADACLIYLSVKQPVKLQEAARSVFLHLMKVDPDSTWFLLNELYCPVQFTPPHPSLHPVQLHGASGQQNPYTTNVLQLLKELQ
UniProt Q9Y385: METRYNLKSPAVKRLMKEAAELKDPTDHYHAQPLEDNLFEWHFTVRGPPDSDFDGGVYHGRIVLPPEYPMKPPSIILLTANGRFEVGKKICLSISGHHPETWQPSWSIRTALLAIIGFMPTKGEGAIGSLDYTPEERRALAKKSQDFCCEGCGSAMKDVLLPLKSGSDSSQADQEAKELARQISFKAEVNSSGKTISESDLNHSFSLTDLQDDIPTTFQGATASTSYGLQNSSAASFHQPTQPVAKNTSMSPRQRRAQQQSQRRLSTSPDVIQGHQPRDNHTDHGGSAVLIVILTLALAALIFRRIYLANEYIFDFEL
UniProt Q9GZX9: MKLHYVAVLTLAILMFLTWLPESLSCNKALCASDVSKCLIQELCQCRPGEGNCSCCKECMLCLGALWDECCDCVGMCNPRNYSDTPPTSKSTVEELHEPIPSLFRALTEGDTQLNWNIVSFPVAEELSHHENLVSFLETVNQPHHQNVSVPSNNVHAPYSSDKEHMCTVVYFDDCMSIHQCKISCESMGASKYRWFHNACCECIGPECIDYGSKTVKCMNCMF
UniProt P49459, whole entry, looked up: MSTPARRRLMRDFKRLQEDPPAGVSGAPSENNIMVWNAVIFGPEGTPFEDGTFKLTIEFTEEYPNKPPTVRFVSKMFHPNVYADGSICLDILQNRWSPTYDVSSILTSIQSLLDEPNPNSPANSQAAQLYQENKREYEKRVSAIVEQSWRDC
UniProt P62253: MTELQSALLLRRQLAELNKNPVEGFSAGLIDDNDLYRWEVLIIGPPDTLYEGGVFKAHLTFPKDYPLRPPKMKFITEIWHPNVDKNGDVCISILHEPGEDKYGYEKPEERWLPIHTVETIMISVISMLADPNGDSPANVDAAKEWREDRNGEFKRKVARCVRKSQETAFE
UniProt P0CG48, whole entry, looked up: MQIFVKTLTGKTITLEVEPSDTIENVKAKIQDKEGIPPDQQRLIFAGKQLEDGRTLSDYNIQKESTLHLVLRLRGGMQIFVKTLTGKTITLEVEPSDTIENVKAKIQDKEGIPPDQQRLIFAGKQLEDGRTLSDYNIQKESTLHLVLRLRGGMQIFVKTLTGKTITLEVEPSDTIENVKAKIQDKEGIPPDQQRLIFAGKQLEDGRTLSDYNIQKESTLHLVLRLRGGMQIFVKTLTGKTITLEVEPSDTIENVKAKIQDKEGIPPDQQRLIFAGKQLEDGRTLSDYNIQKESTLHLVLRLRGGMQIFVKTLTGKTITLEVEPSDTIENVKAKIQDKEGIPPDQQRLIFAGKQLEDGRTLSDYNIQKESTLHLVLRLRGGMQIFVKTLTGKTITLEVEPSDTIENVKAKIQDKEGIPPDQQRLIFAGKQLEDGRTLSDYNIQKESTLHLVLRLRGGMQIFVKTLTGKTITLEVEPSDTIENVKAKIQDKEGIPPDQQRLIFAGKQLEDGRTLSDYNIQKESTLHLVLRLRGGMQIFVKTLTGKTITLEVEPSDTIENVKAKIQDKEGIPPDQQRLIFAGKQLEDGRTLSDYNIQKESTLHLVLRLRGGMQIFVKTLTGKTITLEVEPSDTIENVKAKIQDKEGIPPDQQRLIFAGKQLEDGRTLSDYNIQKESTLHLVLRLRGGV
UniProt Q9NUQ3: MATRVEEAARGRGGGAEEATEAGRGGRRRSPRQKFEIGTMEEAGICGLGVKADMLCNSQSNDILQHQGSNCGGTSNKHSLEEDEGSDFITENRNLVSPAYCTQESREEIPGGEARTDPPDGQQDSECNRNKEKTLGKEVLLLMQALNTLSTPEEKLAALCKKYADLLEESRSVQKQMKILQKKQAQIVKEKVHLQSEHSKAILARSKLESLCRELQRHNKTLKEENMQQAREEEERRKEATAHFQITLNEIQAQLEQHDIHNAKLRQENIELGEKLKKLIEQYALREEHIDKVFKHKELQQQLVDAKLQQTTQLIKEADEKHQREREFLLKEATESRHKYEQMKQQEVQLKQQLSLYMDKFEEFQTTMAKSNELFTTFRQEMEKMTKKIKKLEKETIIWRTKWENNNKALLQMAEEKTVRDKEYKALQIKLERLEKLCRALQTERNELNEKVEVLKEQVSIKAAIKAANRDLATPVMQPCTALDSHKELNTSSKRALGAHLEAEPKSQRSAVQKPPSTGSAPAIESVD
UniProt Q99757: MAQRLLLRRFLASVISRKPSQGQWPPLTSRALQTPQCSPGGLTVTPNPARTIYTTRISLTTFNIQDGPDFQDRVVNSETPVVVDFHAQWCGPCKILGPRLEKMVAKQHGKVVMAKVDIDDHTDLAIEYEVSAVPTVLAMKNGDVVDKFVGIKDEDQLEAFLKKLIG
UniProt Q969M7: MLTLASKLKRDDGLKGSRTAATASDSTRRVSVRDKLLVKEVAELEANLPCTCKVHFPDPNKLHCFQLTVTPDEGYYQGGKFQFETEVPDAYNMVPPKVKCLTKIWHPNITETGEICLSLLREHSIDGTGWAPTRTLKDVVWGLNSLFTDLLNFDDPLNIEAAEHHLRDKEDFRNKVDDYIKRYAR
UniProt P10599: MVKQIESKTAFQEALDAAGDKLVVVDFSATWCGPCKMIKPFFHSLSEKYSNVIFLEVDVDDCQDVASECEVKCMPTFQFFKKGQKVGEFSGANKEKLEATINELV
UniProt Q12792, whole entry, looked up: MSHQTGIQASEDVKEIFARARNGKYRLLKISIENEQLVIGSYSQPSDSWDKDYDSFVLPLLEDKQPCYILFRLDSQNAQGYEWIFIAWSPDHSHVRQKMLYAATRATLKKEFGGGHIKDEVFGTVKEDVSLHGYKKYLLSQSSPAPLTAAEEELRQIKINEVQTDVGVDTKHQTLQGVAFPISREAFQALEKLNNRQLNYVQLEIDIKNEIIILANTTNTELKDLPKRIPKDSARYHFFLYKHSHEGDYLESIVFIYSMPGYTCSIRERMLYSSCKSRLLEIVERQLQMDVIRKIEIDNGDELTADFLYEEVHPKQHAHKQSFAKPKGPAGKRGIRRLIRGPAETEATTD
UniProt P30536, whole entry, looked up: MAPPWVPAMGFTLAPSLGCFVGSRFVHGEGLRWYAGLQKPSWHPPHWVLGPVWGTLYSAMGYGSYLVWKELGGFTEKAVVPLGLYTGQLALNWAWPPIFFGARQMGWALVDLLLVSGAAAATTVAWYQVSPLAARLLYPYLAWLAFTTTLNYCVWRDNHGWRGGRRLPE
UniProt P51668: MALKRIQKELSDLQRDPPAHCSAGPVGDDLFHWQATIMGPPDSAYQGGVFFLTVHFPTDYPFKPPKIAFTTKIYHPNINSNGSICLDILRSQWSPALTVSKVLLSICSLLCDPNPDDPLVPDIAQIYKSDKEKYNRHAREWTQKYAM
UniProt P61088: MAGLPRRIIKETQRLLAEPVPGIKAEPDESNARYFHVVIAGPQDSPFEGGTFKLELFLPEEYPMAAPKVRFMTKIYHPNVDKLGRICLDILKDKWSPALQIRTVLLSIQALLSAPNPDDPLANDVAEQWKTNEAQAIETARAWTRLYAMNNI

Columns and labels:
Assay in all cases: log2 fold change, soluble protein after heating vs DMSO (PISA); higher = thermal stabilisation; K562 cells, 10 uM, 30 min; active = over 0.2 and 3.5 SD of the protein, either way, in both replicates (recomputed)
[1] = compound: Cc1ccc(NC(=O)c2ccc(CN3CC[C@H](N(C)C)C3)c(C(F)(F)F)c2)cc1Nc1nccc(-c2cncnc2)n1 [bafetinib]
How it was run: (§1)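 Soluble protein was quantified by TMTpro 16plex LC-MS/MS after channel sums were equalised. It was obtained as the supernatant after 21,000xg for 90 min from pooled aliquots of K562 cells (2×10^6 cells/mL, 10 μM compound, 30 min) heated for 3 min across 48°C-58°C and extracted in PBS with 0.5% NP-40 at 4°C. Thermal stability values are relative to control samples and come from duplicates. They are given as log2 fold changes.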

[2] = compound: Cc1cccc(CC(=O)N2CCc3c2ccc(-c2cn(C)c4ncnc(N)c24)c3F)n1
How it was run: as §1

[3] = compound: Cc1cn(-c2cc(NC(=O)c3ccc(C)c(Nc4nccc(-c5cccnc5)n4)c3)cc(C(F)(F)F)c2)cn1 [nilotinib]
How it was run: as §1

[4] = compound: Cc1nc(Nc2n[nH]c3c2CN(C(=O)N[C@H](CN(C)C)c2ccccc2)C3(C)C)c2sccc2n1
How it was run: as §1

[5] = compound: Cc1nc(Nc2ncc(C(=O)Nc3c(C)cccc3Cl)s2)cc(N2CCN(CCO)CC2)n1 [dasatinib]
How it was run: as §1

[6] = compound: Cc1ncc(-c2ccnc(Nc3ccc(S(C)(=O)=O)cc3)n2)n1C(C)C
How it was run: as §1

[7] = compound: Cn1cc(-c2ccc3c(c2)CCN3C(=O)Cc2cccc(C(F)(F)F)c2)c2c(N)ncnc21
How it was run: as §1

[8] = compound: Cn1cc(-c2ccc3nnc(C(F)(F)c4ccc5ncccc5c4)n3n2)cn1
How it was run: as §1

[9] = compound: Cn1cncc1[C@@](N)(c1ccc(Cl)cc1)c1ccc2c(c1)c(-c1cccc(Cl)c1)cc(=O)n2C [tipifarnib]
How it was run: as §1

[10] = compound: FC(F)(F)c1ccc(/C=C/c2nc(COc3ccc(CCCCn4ccnn4)cc3)co2)cc1 [mubritinib]
How it was run: as §1

| Target | log2 fold change [1] | log2 fold change [2] | log2 fold change [3] | log2 fold change [4] | log2 fold change [5] | log2 fold change [6] | log2 fold change [7] | log2 fold change [8] | log2 fold change [9] | log2 fold change [10] |
| --- | --- | --- | --- | --- | --- | --- | --- | --- | --- | --- |
| TUBE1 (UniProt Q9UJT0) | inactive: 0.017 | inactive: -0.069 | inactive: 0.097 | inactive: -0.07 | inactive: 0.022 | inactive: -0.012 | inactive: 0.019 | inactive: -0.08 | inactive: 0.025 | inactive: 0.012 |
| TTPAL (UniProt Q9BTX7) | inactive: -0.059 | inactive: 0.001 | inactive: 0.001 | inactive: 0.011 | inactive: 0.06 | inactive: 0.041 | inactive: 0.043 | inactive: -0.051 | inactive: 0.002 | – |
| TUBGCP3 (UniProt Q96CW5) | inactive: 0.085 | inactive: 0.106 | inactive: 0.063 | inactive: 0.174 | inactive: -0.136 | inactive: 0.034 | inactive: -0.022 | inactive: -0.021 | inactive: 0.01 | inactive: -0.046 |
| UBA6 | inactive: 0.009 | inactive: 0.036 | inactive: 0.062 | inactive: -0.137 | inactive: -0.035 | inactive: -0.024 | inactive: 0.016 | inactive: -0.024 | inactive: -0.075 | active: 0.228 |
| UBE2R2 (UniProt Q712K3) | inactive: -0.078 | inactive: 0.039 | inactive: -0.038 | inactive: -0.022 | inactive: -0.063 | inactive: -0.032 | inactive: 0.012 | inactive: -0.017 | inactive: -0.016 | inactive: -0.021 |
| UBE2B (UniProt P63146) | inactive: -0.051 | inactive: -0.171 | inactive: -0.074 | inactive: 0.017 | inactive: -0.062 | inactive: 0.024 | inactive: -0.045 | inactive: 0.007 | inactive: -0.033 | inactive: -0.02 |
| UAP1L1 (UniProt Q3KQV9) | inactive: -0.04 | inactive: -0.045 | inactive: -0.085 | inactive: 0.036 | inactive: -0.028 | inactive: 0.03 | inactive: 0.02 | inactive: 0.064 | inactive: -0.006 | inactive: 0.014 |
| TTI1 (UniProt O43156) | inactive: -0.006 | inactive: 0.165 | inactive: -0.036 | inactive: -0.102 | inactive: -0.076 | inactive: 0.039 | inactive: 0.085 | inactive: 0 | inactive: -0.103 | inactive: 0.095 |
| TUBB (UniProt P07437) | inactive: -0.005 | inactive: -0.032 | inactive: 0.03 | inactive: 0.018 | inactive: -0.054 | inactive: -0.019 | inactive: 0.076 | inactive: 0.003 | inactive: 0.011 | inactive: 0.032 |
| TYW1 (UniProt Q9NV66) | inactive: -0.003 | inactive: 0.033 | inactive: -0.107 | inactive: -0.005 | inactive: 0.015 | inactive: 0.04 | inactive: -0.001 | inactive: -0.085 | inactive: -0.041 | inactive: -0.075 |
| UBE2J1 (UniProt Q9Y385) | inactive: 0.108 | inactive: 0.023 | inactive: -0.076 | inactive: -0.09 | inactive: -0.028 | inactive: -0.189 | inactive: -0.053 | inactive: 0.003 | inactive: -0.056 | inactive: 0.132 |
| TWSG1 (UniProt Q9GZX9) | inactive: -0.049 | inactive: -0.072 | inactive: -0.019 | inactive: 0.015 | inactive: -0.084 | inactive: -0.011 | inactive: 0.042 | inactive: -0.053 | inactive: 0.009 | inactive: 0.012 |
| UBAP2 (UniProt Q5T6F2) | inactive: -0.032 | inactive: -0.013 | inactive: 0.012 | inactive: 0.016 | inactive: 0.028 | inactive: -0.026 | inactive: -0.009 | inactive: 0.006 | inactive: 0.015 | inactive: 0.055 |
| TUBA4A (UniProt P68366) | inactive: 0.038 | inactive: -0.028 | inactive: -0.011 | inactive: 0.008 | inactive: -0.102 | inactive: -0.009 | inactive: 0.047 | inactive: 0.051 | inactive: -0.073 | inactive: 0.073 |
| UBE2A (UniProt P49459) | inactive: -0.113 | inactive: -0.047 | inactive: -0.026 | inactive: -0.023 | inactive: -0.145 | inactive: 0.03 | inactive: 0.063 | inactive: -0.029 | inactive: -0.032 | inactive: 0.069 |
| UBE2G1 (UniProt P62253) | inactive: -0.05 | inactive: -0.049 | inactive: 0.005 | inactive: -0.024 | inactive: -0.002 | inactive: 0.009 | inactive: 0.045 | inactive: -0.009 | inactive: 0 | inactive: 0.063 |
| UBC (UniProt P0CG48) | inactive: 0.055 | inactive: -0.156 | inactive: 0.116 | inactive: 0.013 | inactive: 0.02 | inactive: -0.025 | inactive: 0.003 | inactive: 0.07 | inactive: -0.051 | inactive: 0.005 |
| TXLNG (UniProt Q9NUQ3) | inactive: -0.005 | inactive: 0.034 | inactive: 0.003 | inactive: -0.001 | inactive: 0.001 | inactive: 0.004 | inactive: 0.032 | inactive: 0 | inactive: 0.02 | inactive: 0.042 |
| TUBG1 (UniProt P23258) | inactive: -0.012 | inactive: -0.022 | inactive: -0.025 | inactive: -0.048 | inactive: 0.008 | inactive: -0.025 | inactive: 0.036 | inactive: -0.062 | inactive: 0.047 | inactive: 0.024 |
| TYW3 (UniProt Q6IPR3) | inactive: 0.114 | inactive: 0.035 | inactive: -0.004 | inactive: 0.051 | inactive: 0.015 | inactive: 0.009 | inactive: -0.037 | inactive: -0.051 | inactive: 0.031 | inactive: 0.029 |
| TUFM (UniProt P49411) | inactive: 0.026 | inactive: 0.059 | inactive: -0.06 | inactive: -0.019 | inactive: -0.133 | inactive: -0.04 | inactive: 0.099 | inactive: 0.047 | inactive: -0.066 | inactive: -0.022 |
| TXN2 (UniProt Q99757) | inactive: -0.105 | inactive: -0.104 | inactive: 0.034 | inactive: -0.005 | inactive: 0.083 | inactive: -0.048 | inactive: 0.227 | inactive: 0.013 | inactive: 0.059 | inactive: 0.009 |
| UBE2F isoform 2 (UniProt Q969M7) | inactive: 0 | inactive: -0.046 | inactive: 0.035 | inactive: -0.004 | inactive: -0.083 | inactive: -0.022 | inactive: 0.042 | inactive: 0.02 | inactive: -0.064 | inactive: -0.026 |
| TUBA3C (UniProt P0DPH7) | inactive: 0.006 | inactive: 0.025 | inactive: -0.001 | inactive: 0.09 | inactive: -0.063 | inactive: -0.06 | inactive: 0.053 | inactive: 0.004 | inactive: 0.006 | inactive: 0.03 |
| TXN (UniProt P10599) | inactive: -0.034 | inactive: 0 | inactive: 0.033 | inactive: -0.018 | inactive: 0.035 | inactive: 0.015 | inactive: -0.034 | inactive: 0.003 | inactive: 0.07 | inactive: 0.022 |
| TWF1 (UniProt Q12792) | inactive: 0.05 | inactive: -0.034 | inactive: 0.144 | inactive: 0.02 | inactive: -0.005 | inactive: 0.025 | inactive: 0.048 | inactive: -0.06 | inactive: -0.085 | inactive: 0.17 |
| TSPO (UniProt P30536) | inactive: -0.038 | inactive: -0.075 | inactive: -0.02 | inactive: -0.01 | inactive: -0.008 | inactive: -0.012 | inactive: 0.045 | inactive: 0.068 | inactive: 0.083 | inactive: 0.003 |
| UBE2D1 (UniProt P51668) | inactive: -0.065 | active: -0.345 | inactive: -0.002 | inactive: 0.046 | inactive: -0.083 | inactive: -0.074 | inactive: 0.036 | inactive: -0.075 | inactive: -0.089 | inactive: 0.085 |
| TSPAN13 (UniProt O95857) | inactive: -0.101 | inactive: 0.014 | inactive: 0.056 | inactive: -0.035 | inactive: -0.163 | inactive: -0.095 | inactive: -0.038 | inactive: 0.095 | inactive: -0.008 | inactive: 0.226 |
| UBE2N (UniProt P61088) | inactive: 0 | inactive: -0.033 | inactive: -0.024 | inactive: 0.025 | inactive: -0.011 | inactive: -0.029 | inactive: 0.121 | inactive: 0.015 | inactive: -0.103 | inactive: -0.024 |

Random excerpt: two records from the list

| Target | log2 fold change [1] | log2 fold change [2] | log2 fold change [3] | log2 fold change [4] | log2 fold change [5] | log2 fold change [6] | log2 fold change [7] | log2 fold change [8] | log2 fold change [9] | log2 fold change [10] |
| --- | --- | --- | --- | --- | --- | --- | --- | --- | --- | --- |
| TSPO (UniProt P30536) | inactive: -0.038 | inactive: -0.075 | inactive: -0.02 | inactive: -0.01 | inactive: -0.008 | inactive: -0.012 | inactive: 0.045 | inactive: 0.068 | inactive: 0.083 | inactive: 0.003 |
| TTPAL (UniProt Q9BTX7) | inactive: -0.059 | inactive: 0.001 | inactive: 0.001 | inactive: 0.011 | inactive: 0.06 | inactive: 0.041 | inactive: 0.043 | inactive: -0.051 | inactive: 0.002 | – |
